Reference: article PMC4812327
These are yes or no findings as the source states them, for the method shown. In cells and extracts the contact can be indirect.

Biological target: β-tubulin (Drosophila)
Assay: co-IP; co-immunoprecipitation assays of Fig. S10; source of proteins and antibodies not told in the text shown

binding: no binding
B1: Partner of Inscuteable (Pins) (protein, UniProt Q9VB22 1-658)
chain: MSSLSASAENVSSLGLGSGGGGTTSHDGNSQQGSGSDGGSSMCLELALEGERLCKAGDCRAGVAFFQAAIQAGTEDLRTLSAIYSQLGNAYFYLGDYNKAMQYHKHDLTLAKSMNDRLGEAKSSGNLGNTLKVMGRFDEAAICCERHLTLARQLGDRLSEGRALYNLGNVYHAKGKHLGQRNPGKFGDDVKEALTRAVEFYQENLKLMRDLGDRGAQGRACGNLGNTYYLLGDFQAAIEHHQERLRIAREFGDRAAERRANSNLGNSHIFLGQFEDAAEHYKRTLALAVELGEREVEAQSCYSLGNTYTLLHEFNTAIEYHNRHLAIAQELGDRIGEARACWSLGNAHSAIGGHERALKYAEQHLQLAKELHDPVGESTARVNISDLRKLLGMPDSEPSPTEEEARSTASDHSASGNQSDGSENSQGRMVRVRRQSMEQLDLIKITPDGKRMQEEKLRAQATRKAKDDDFFEMLSRSQSKRMDDQRCSIKVNPAGAPAVATGATRKPLVQQNSLFVDPTNLPGLKSPSSANPSAIGHGPLARSATTTQQPDDDFLDMLMRCQGSRLEEQRSELPRPNVTMDAEAEAPPRSVPEAAVPGAPRGQTGRGATVPDEDFFSLIMKVQSGRMEDQRASIPFRNANNNNNSRSNNNGSAGGAGK
